Test results published in the supplement of paper PMC5949888.
Most values lie at the floor of the assay. Slopes are relative: functional sequences can read slightly below zero.

system: Saccharomyces cerevisiae PS128 hsf1 delta, HSF1(1-493) fusion; assay: growth estimate (transactivation domain function in HSF1 fusion, heat-shock survival) (a.u. (slope of normalised read count over time)); higher = stronger growth at 37°C, i.e. more transactivation activity; conditions: library: random library

Substance	growth estimate
ACRRMEKDRGGRR	< -0.25
MPSGGHRSPRLNESPVAYNP	< -0.25
HLAYDMCNLGVRLVRGW	< -0.25
CRRQRRACLATIRWLETSHN	< -0.25
LVISLSP	< -0.25
GNLSCTWRGSLASM	< -0.25
LPGGSLTRHGLFVGASLRNS	< -0.25
PFGAYCCGLTGSPRRRVRSH	-0.242
RVIAKLRLDNP	< -0.25
DLQGYLGRYATRVNPNGALS	-0.243
GFV	< -0.25
LAYKARSVGILSCNRIIRMV	< -0.25
VSIEGWERARRETA	< -0.25
YSRPVRKKWTLSV	< -0.25
VSEKRRRVVSLAFDKTRGIG	< -0.25
AAY	< -0.25
FVAGKTPASRN	< -0.25
IPSASISKAGLTRCKRRMTA	< -0.25
SSATSWIPRWNRKSGAPHVG	< -0.25
SLPNFSRRGRPRHRRPTPAF	< -0.25
IGAYKHG	-0.246
VGMFEHHEDWRALRSVHGLG	< -0.25
MSPLPHVKARLCCHERTASP	< -0.25
LFRVVGGGSNFAEIGTIVCA	< -0.25
CGK	< -0.25

Substance	growth estimate
YLQSGSSNVIRPRKSLMLRS	-0.248
MIGHRRCRSTFAK	< -0.25
ARLIRALFIKGRRLSDFERT	< -0.25
LLLESSVETSCGSQF	< -0.25
VCWPPITQTFSGPRST	< -0.25
VRW	< -0.25
GQFLREDTVGEVGVFNPPTP	< -0.25
LRPDRGPSC	< -0.25
AGCDMDVCELIVILRGLRTA	< -0.25
TGPRVSFHLDLPYVINGPRS	< -0.25
QIKSAFGGSSVWAARESEDM	< -0.25
VKAIVLFRGERELPDTCGTG	< -0.25
RVGWDSSPGALTVYSHRWTP	< -0.25
WIIQLGGSLDANR	< -0.25
RGEMVPAICN	< -0.25
QTIAQTL	< -0.25
QTARFTHMEYGAPLPAPKDS	< -0.25
AGLTIAEGHGRPFLPAGVQ	< -0.25
TLRKWVRGVPCGLLQYTRTQ	< -0.25
LRLTLYTPNGVGSFGSVSQG	< -0.25
LIDDNES	< -0.25
NPPIQRLQPTSTIPGLTSDL	< -0.25
SEIEKSSRSVCKIEALRFSD	< -0.25
YGLIQTRRLNLHVLCDP	< -0.25
YSMG	-0.246

Four entries from above in a different format:
Substance,growth estimate
VSIEGWERARRETA,< -0.25
YSRPVRKKWTLSV,< -0.25
VSEKRRRVVSLAFDKTRGIG,< -0.25
AAY,< -0.25

Individual results from the results shown:
VRW – growth estimate: < -0.25
TLRKWVRGVPCGLLQYTRTQ – growth estimate: < -0.25

(cont.)

Substance	growth estimate
CAGNSPGVKRLT	< -0.25
PGLKSGGS	< -0.25
PYAKRATNGAKDLFC	< -0.25
SGATP	< -0.25
AGVYRRT	< -0.25
YYVRRLHCCTDTPLSGSDH	< -0.25
ARLQHQGSPRAASPWRGIAT	< -0.25
CRFR	< -0.25
ISVTPASRKKSSSASNGSFS	< -0.25
PLGLLDKANSCS	< -0.25
GLRGCPPLKSEDVTSYTCST	< -0.25
LLGFKGISEDFRELGSYEGV	< -0.25
NEGIDEARGDTA	< -0.25
TRTYARL	< -0.25
RSILLDLTPL	< -0.25
ERRTRNRTCSIS	< -0.25
VRIL	< -0.25
LRCVCSKFASVNHI	< -0.25
GCLGLMPCLLVGPARVLSHI	-0.246
YGLANV	< -0.25
EQSRKECWVSKATAIRLVPS	< -0.25
IGKG	< -0.25
FSVDSTQVYSGRHKLSPIGW	< -0.25
HAFFSSMGRRTAIPHSPVQR	-0.243
EVESGDRWSGLCLSDLLPSV	0.226

Substance	growth estimate
GHRGWALGHCPGHG	< -0.25
LCVQLDDDIALYVGNMVRPL	< -0.25
RRCIGV	< -0.25
SNLSRIAEEKEYFNGPHRAL	< -0.25
KRVHYHLLATFMFKALTSRR	< -0.25
RVLMSFLTLFRPAKT	< -0.25
LMD	-0.243
RWASLHGPRRGRTVADQRVS	< -0.25
LSTRSQRQVTTNPAFPRSTA	< -0.25
TVSRLRARDQGRGGSALAPT	< -0.25
IAG	< -0.25
GLCTRPAADTGMKSHFSR	-0.248
NLECDRCTR	< -0.25
VDPRDTPHTIEIHKIQVTLL	< -0.25
GTRLRSVNSTSVLAE	< -0.25
TRGSEGTTRFS	< -0.25
QDTIKVTRAVGPASQFSLTI	< -0.25
LVPSSARPCAGISSSQ	< -0.25
RHRKESGGVRLVCT	< -0.25
LRYASGTGILATR	< -0.25
MNSLCVESIGRPHPASVVLP	< -0.25
QRSGMPFYMRGLPNEGPCSL	< -0.25
SPLTAVVSRSAVDDNLVVQD	< -0.25
FPLVGTSRGRLGSVA	< -0.25
